Some results were stated once for a whole list of compounds, not compound by compound.
assay: Liver, heart and plasma concentrations after oral doses in Rattus sp.; conditions: single 30 mg/kg oral dose, 24 hours post dose
Method: (§1) Compounds were initially synthesized and tested for potency (IC50) in a fluorogenic NS3/4 protease assay and cell-based HCV replicon system as described in Example 8 above. […] These leads were then further optimized for drug-like physical properties and administered in oral doses in Rattus sp. to assess liver, heart and plasma concentrations.
Compounds were tested for liver clearance over time following a single 3 mg/kg oral dose in rats.
as §1, with “described” for “described in Example 8”

| SMILES | concentration in liver relative to replicon EC50 value |
| --- | --- |
| CC(C)(C)OC(=O)N[C@H]1CCCCCCC[C@@H]2C[C@@]2(C(=O)NS(=O)(=O)C2CC2)NC(=O)[C@@H]2C[C@@H](OC(=O)N3Cc4ccccc4C3)CN2C1=O [AR333833] | at least 200 fold |
| CC(C)(C)OC(=O)N[C@H]1CCCCC/C=C\[C@@H]2C[C@@]2(C(=O)NS(=O)(=O)C2CC2)NC(=O)[C@@H]2C[C@@H](OC(=O)N3CCc4ccccc4C3)CN2C1=O [AR261408] | at least 200 fold |
| CC(C)(C)OC(=O)N[C@H]1CCCCC/C=C\[C@@H]2C[C@@]2(C(=O)NS(=O)(=O)C2CC2)NC(=O)[C@@H]2C[C@@H](OC(=O)N3Cc4cccc(F)c4C3)CN2C1=O [AR334191] | at least 200 fold |
| CC(C)(C)OC(=O)N[C@H]1CCCCC/C=C\[C@@H]2C[C@@]2(C(=O)NS(=O)(=O)C2CC2)NC(=O)[C@@H]2C[C@@H](OC(=O)N3Cc4ccccc4C3)CN2C1=O [AR294381] | at least 200 fold |

Source: US7491794B2, “Macrocyclic compounds as inhibitors of viral replication” (Intermune, Inc., priority 2003, dated 2009)
